In article doi:10.1101/589416:
No constants are given. Whether binding was seen depends on the method and setting. Binding seen in cells or lysates may run through a third protein. Some binding calls cover weakened binding; strength is not graded here.

Chains of the proteins cited; added tags and fusions are not shown.
UniProt Q921F2: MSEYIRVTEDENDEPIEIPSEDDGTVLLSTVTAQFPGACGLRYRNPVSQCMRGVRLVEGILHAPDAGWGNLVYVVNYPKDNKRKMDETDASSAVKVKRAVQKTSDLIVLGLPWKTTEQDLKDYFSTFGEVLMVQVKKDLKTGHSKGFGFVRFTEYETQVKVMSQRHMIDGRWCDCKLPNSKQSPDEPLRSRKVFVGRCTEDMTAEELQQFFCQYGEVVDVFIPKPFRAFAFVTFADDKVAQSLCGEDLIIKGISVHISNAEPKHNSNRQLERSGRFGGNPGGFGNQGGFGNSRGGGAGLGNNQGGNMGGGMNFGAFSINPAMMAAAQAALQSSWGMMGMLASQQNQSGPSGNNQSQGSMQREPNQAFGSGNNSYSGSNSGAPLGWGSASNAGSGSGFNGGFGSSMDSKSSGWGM

Target: TAR DNA-binding protein 43 (mouse (endogenous in adult mouse brain and primary mouse cortical neurons)) (UniProt Q921F2)
Assay: co-IP

B1: STAU2 (protein, UniProt Q8CJ67 1-570)
chain: MANPKEKTPVCLVNELARFHSIQPQYKLLNESGPAHSKMFSVQLSLGEQTWESEGSSIKKAQQAVANKALTESTLPKPVQKPPKSNVNNNPGSITPTVELNGLAMKRGEPAIYRPLDPKPFPNYRANYNFRGMYNQRYHCPMPKIFYVQLTVGNNEFFGEGKTRQAARHNAAMKALQALQNEPIPEKSPQNGESGKEMDDDKDANKSEISLVFEIALKRNMPVSFEVIKESGPPHMKSFVTRVSVGEFSAEGEGNSKKLSKKRAATTVLQELKKLPPLPVVEKPKLFFKKRPKTIVKAGPDYGQGMNPISRLAQIQQARKEKEPDYILLSERGMPRRREFVMQVKVGNEVATGTGPNKKIAKKNAAEAMLLQLGYKASTSLQDPLDKTGENKGWSGPKPGFPEPTNNTPKGILHLSPDVYQEMEASRHRVTSGTTLSYLSPKDMNQPSSSFFSVSPSSTSSATVARELLMNGTSPTAEAIGLKGSSPTSPCSSVQPSKQLEYLARIQGFQAALSALKQFSEQGLESIDGAVNVEKGSLEKQAKHLREKADNNQAKPASISQDCKKSKSAI
B1 was tested, and the binding was “binds”.
